These are yes or no findings as the source states them, for the method shown. A result given as binding can be weak or reduced; the word gives no strength.
B1: ANAC016 (NTL3) (protein, UniProt A4FVP6 1-564)
chain: MVDSSRDSCFKAGKFSAPGFRFHPTDEELVVYYLKRKICCKKLRVNAIGVVDVYKVDPSELPGLSMLKTGDRQWFFFTPRNRKYPNAARSSRGTATGYWKATGKDRVIEYNSRSVGLKKTLVFYRGRAPNGERTDWVMHEYTMDEEELGRCKNAKEYYALYKLYKKSGAGPKNGEQYGAPFQEEEWVDSDSEDADSVAVPDYPVVRYENGPCVDDTKFCNPVKLQLEDIEKLLNEIPDAPGVNQRQFDEFVGVPQGNSAEVIQSTLLNNSSGEYIDPRTNGMFLPNGQLYNRDSSFQSHLNSFEATSGMAPLLDNEKEEYIEMNDLLIPELGASSTEKSTEFLNHGEFGDVNEYDQLFNDISVFQGTSTDLSCLSNFTNNTSGQRQQLLYEQFQYQTPENQLNNYMHPSTTLNQFTDNMWFKDDQAALYVQPPQSSSGAFTSQSTGVMPESMNPTMSVNPQYKEGQNGGGTRSQFSSALWELLESIPSTPASACEGPLNQTFVRMSSFSRIRFNGTSVTSRKVTVAKKRISNRGFLLLSIMGALCAIFWVFKATVGVMGRPLLS
B2: ANAC017 (NTL7) (protein, UniProt Q9XIC5 1-557)
chain: MADSSPDSCFKGGKFSAPGFRFHPTDEELVMYYLKRKICRKRLRVNVIGVVDVYKMDPEELPGQSMLKTGDRQWFYFTPRSRKYPNAARSNRGTENGYWKATGKDRVIEYNSRSVGLKKTLVFYRGRAPSGERTDWVMHEYTMDEDELGRCKNPQEYYALYKLFKKSGAGPKNGEQYGAPFQEEEWVDDDNEDVNAIAVAVPEQPVVRYEDARRVDERRLFNPVILQLEDIDELLNGIPNAPGVPQRCIPQVNSEEELQSTLVNNSAREFLPNGQQYNRPSSFDSLETAEVTSAPLVFEKEDFIEMDDLLLIPEFGASSTEKAAQFSNHGEFDDFNEFDQLFHDVSMSLDMEPIDQGTSANLSSLSDSANYTSDQKQQLLYQQFQDQTPENQLNNIMDPSTTLNQITSDIWFEDDQAILFDQQQSFSGAFASPSSGVMPDSTNPTMSVNAQGHEIQNGGGTTSQFSSALWALMDSIPSTPASACEGPLNRTFVRMSSFSRMRFNGKANGTPVSTTIAKKGIRNRGFLLLSIVGALCAIFWVLVATVRVSGRSLLLKD
B3: ANAC005 (protein, UniProt O81914 1-362)
chain: MANPVGFRFRPTDGEIVDIYLRPKNLESNTSHVDEVISTVDICSFDPWDLPSHSRMKTRDQVWYFFGRKENKYGKGDRQIRKTKSGFWKKTGVTMDIMRKTGDREKIGEKRVLVFKNHGGSKSDWAMHEYHATFSSPNQIMTYTLCKVKFKGERREFSVATGSGIKHTHSLIPPTNNSGVLSVETEGSLFHSQESQNPSQFSGFLDVDALDRDFCNILSDDFKGFFNDDDEQSKIVSMQDDRNNHTPQKPLTGVFSDHSTDGSDSDPISATTISIQTLSTCPSFGSSNPLYQITDLQESPNSIKLVSLAQEVSKTPGTGIDNDAQGTEIGEHKLGQETIKNKRAGFFHRMIQKFVKKIHLRT

Molecular target: Plasmopara halstedii RXLR effector PhRXLR-C13 (Plasmopara halstedii)
Test: two-hybrid

With B1 as the binder, how does the binding read?
The binding was “binds”.

B2 was tested. Which binding did it give?
The binding was “binds”.

For B3, which binding is on record?
Its binding is “no binding”.

Reference: paper PMC10199128
